Laboratory results: PubChem BioAssay AID1259308 (NCATS, 2017)

Aim: 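Candidate targets for better recombinant protein yield in mammalian cells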 (primary screen)
Cells: human HEK293 embryonic kidney cells stably expressing firefly luciferase (HEK-CMV-Luc2-Hygro)
Reagents: single siRNA against human genes, 0.8 pmol siRNA per well
Duration: 72 h
Measurement: 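Luciferase light (ONE-Glo) measured on one replicate plate set and viability (CellTiter-Glo) on the other, scaled to a negative control siRNA, with robust z-scores and luciferase per cell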
Direction: total luciferase, z-score and total luciferase, % of control: higher = more reporter protein produced
Hit rule: 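An siRNA counts as active if its total luciferase robust z-score exceeds 3; genes with two or more such siRNAs out of three were retested with fresh siRNAs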
Meaning of the calls: active = raised luciferase; inactive = no rise
The whole screen tested about 59,000 reagents; shown is a part drawn at random. Over the whole deposit, about 1,510 (2.6%) were called active. 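Calls use total luciferase alone and ignore viability, so some active siRNAs may act by altering cell number.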 Further read-outs or replicates are left out here.

| gene | PubChem SID | total luciferase, z-score | total luciferase, % of control | call |
| --- | --- | --- | --- | --- |
| SLC39A1 | SID160730968 | 0.134 | 84.6 | inactive |
| SLC39A1 | SID160738502 | -0.401 | 73.9 | inactive |
| SLC39A1 | SID160738503 | 0.258 | 87 | inactive |
| GRHL1 | SID160739194 | 0.67 | 95.2 | inactive |
| GRHL1 | SID160739195 | 1.04 | 102 | inactive |
| GRHL1 | SID160739197 | 1.2 | 106 | inactive |
| BCL2L14 | SID160748845 | -0.963 | 62.7 | inactive |
| BCL2L14 | SID160748846 | 0.421 | 90.3 | inactive |
| BCL2L14 | SID160748847 | -0.797 | 66 | inactive |
| SAPCD2 | SID160724680 | -1.91 | 43.8 | inactive |
| SAPCD2 | SID160724682 | -3.05 | 21.3 | inactive |
| SAPCD2 | SID160753525 | 0.357 | 89 | inactive |
| TMEM247 | SID160766038 | 1.06 | 103 | inactive |
| TMEM247 | SID160766039 | 0.118 | 84.2 | inactive |
| TMEM247 | SID160766040 | -1.37 | 54.6 | inactive |
| SEZ6L2 | SID160737977 | -0.73 | 67.4 | inactive |
| SEZ6L2 | SID160737978 | 0.154 | 84.9 | inactive |
| SEZ6L2 | SID160737979 | -0.255 | 76.8 | inactive |

Continued (5 carried over from the part before).
| gene | PubChem SID | total luciferase, z-score | total luciferase, % of control | call |
| --- | --- | --- | --- | --- |
| TMEM247 | SID160766039 | 0.118 | 84.2 | inactive |
| TMEM247 | SID160766040 | -1.37 | 54.6 | inactive |
| SEZ6L2 | SID160737977 | -0.73 | 67.4 | inactive |
| SEZ6L2 | SID160737978 | 0.154 | 84.9 | inactive |
| SEZ6L2 | SID160737979 | -0.255 | 76.8 | inactive |
| COMP | SID160746638 | -1.26 | 56.8 | inactive |
| COMP | SID160746649 | 0.994 | 102 | inactive |
| COMP | SID160746660 | 0.566 | 93.1 | inactive |
| TAAR6 | SID160763937 | 1.4 | 110 | inactive |
| TAAR6 | SID160763938 | -0.983 | 62.3 | inactive |
| TAAR6 | SID160763940 | -0.739 | 67.2 | inactive |
| REEP5 | SID160719459 | 0.68 | 95.4 | inactive |
| REEP5 | SID160719460 | -1.45 | 53 | inactive |
| REEP5 | SID160719461 | 0.135 | 84.6 | inactive |
| C5orf22 | SID160743532 | 0.496 | 91.8 | inactive |
| C5orf22 | SID160743533 | -0.621 | 69.5 | inactive |
| C5orf22 | SID160743534 | 1.39 | 109 | inactive |
| C12orf76 | SID160733304 | 2.02 | 122 | inactive |
| C12orf76 | SID160766925 | 0.292 | 87.7 | inactive |
| C12orf76 | SID160766926 | 0.0836 | 83.5 | inactive |
| CTDNEP1 | SID160736197 | -0.737 | 67.2 | inactive |
| CTDNEP1 | SID160736199 | -0.809 | 65.8 | inactive |
| CTDNEP1 | SID160736200 | -0.777 | 66.4 | inactive |
| TMEM250 | SID160735162 | -0.724 | 67.5 | inactive |
| TMEM250 | SID160753565 | 3.36 | 149 | active |
| TMEM250 | SID160753566 | 0.117 | 84.2 | inactive |
